Test results reported in PMC6032332.
These are yes or no findings as the source states them, for the method shown. For some of these results: In cells and extracts the contact can be indirect. Some binding calls cover weakened binding; strength is not graded here. Where a sequence is shown, tags or fusion partners need not be part of it.

Assays:
[1] = biological target: T1, BON2-NLuc (Arabidopsis thaliana) (UniProt Q5S1W2); test: split reporter; split-LUC (firefly luciferase halves NLuc and CLuc) co-expressed by Agrobacterium infiltration in Nicotiana benthamiana leaves; 1 mM luciferin, luminescence imaging, 3 min exposure
T1 sequence: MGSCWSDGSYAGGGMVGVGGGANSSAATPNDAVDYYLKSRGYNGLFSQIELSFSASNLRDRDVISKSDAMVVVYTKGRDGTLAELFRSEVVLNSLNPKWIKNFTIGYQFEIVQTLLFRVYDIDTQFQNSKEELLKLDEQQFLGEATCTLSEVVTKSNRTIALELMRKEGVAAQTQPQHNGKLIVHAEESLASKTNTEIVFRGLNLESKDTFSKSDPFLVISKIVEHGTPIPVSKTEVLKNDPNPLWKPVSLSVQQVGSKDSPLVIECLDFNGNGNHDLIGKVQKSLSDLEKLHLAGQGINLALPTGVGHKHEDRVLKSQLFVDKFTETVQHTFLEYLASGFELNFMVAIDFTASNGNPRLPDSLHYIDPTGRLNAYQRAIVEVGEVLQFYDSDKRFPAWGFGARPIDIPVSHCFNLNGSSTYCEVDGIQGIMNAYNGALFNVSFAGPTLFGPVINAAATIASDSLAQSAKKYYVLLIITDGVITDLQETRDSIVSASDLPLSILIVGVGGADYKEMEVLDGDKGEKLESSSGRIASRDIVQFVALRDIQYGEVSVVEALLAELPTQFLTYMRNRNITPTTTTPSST

[2] = biological target: T2, BON3-NLuc (Arabidopsis thaliana) (UniProt Q5XQC7); test: as above
T2 sequence: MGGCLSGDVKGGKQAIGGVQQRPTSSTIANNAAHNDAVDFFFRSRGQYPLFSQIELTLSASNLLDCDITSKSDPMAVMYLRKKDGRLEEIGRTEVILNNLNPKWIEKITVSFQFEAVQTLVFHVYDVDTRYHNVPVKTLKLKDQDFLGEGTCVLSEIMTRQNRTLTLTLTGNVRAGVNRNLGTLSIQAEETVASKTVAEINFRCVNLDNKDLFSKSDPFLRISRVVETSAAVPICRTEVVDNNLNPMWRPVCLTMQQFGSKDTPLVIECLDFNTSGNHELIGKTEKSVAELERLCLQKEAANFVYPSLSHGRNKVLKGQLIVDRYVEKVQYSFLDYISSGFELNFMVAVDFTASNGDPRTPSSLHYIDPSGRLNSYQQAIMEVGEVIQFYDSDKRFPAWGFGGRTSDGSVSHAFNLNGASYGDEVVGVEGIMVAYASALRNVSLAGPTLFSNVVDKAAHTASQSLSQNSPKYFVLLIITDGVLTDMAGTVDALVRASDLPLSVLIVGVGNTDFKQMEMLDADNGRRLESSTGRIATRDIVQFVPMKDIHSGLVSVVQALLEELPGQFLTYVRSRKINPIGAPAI

[3] = biological target: T3, BON1-VWA-BD (Arabidopsis thaliana) (UniProt Q941L3); test: two-hybrid; yeast two-hybrid, pGADT7 (AD) and pGBKT7 (BD) constructs co-transformed into AH109; growth on SD-Ade-Trp-Leu-His, photographed after three days
T3 sequence: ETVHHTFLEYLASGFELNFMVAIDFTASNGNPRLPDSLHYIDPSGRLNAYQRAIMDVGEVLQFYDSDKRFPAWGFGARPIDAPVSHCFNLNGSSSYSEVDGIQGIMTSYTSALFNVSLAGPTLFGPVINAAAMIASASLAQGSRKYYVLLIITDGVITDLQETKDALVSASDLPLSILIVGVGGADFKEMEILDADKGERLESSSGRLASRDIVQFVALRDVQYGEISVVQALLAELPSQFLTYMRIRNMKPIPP

[4] = biological target: T4, BON2-VWA-BD (Arabidopsis thaliana) (UniProt Q5S1W2); test: as above
T4 sequence: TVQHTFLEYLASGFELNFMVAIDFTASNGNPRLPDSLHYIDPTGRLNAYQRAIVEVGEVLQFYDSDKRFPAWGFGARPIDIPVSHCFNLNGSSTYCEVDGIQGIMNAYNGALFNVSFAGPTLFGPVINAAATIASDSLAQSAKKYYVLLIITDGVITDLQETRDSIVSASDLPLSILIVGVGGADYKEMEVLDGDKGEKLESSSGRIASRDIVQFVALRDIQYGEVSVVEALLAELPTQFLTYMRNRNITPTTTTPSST

[5] = biological target: T5, BON3-VWA-BD (Arabidopsis thaliana) (UniProt Q5XQC7); test: as above
T5 sequence: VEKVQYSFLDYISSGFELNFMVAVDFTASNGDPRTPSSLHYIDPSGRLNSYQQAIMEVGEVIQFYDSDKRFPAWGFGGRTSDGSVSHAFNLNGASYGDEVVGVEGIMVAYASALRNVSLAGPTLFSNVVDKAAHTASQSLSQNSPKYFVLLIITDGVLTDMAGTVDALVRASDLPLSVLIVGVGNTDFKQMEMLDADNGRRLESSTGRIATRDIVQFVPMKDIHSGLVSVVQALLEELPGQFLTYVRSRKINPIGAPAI

[6] = biological target: T6, BON1-NLuc (Arabidopsis thaliana) (UniProt Q941L3); test: split reporter; split-LUC (firefly luciferase halves NLuc and CLuc) co-expressed by Agrobacterium infiltration in Nicotiana benthamiana leaves; 1 mM luciferin, luminescence imaging, 3 min exposure
T6 sequence: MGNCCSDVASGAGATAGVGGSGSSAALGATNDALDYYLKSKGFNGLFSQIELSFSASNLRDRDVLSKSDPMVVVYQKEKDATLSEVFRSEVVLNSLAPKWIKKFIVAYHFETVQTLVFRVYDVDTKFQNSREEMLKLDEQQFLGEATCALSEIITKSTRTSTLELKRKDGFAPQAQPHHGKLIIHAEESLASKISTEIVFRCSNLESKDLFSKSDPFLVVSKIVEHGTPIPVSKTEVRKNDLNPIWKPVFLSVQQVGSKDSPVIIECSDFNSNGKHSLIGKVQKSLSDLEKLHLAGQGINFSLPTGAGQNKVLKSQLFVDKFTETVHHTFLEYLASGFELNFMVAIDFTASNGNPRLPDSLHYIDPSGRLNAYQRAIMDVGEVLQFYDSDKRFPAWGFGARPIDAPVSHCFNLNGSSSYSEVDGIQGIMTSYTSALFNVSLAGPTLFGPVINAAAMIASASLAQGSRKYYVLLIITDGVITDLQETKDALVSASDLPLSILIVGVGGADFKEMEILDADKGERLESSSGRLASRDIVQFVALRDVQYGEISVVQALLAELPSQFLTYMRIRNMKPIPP

[7] = biological target: T7, BON2-CLuc (Arabidopsis thaliana) (UniProt Q5S1W2); test: as above
T7 sequence: T1 sequence

[8] = biological target: T8, BON3-CLuc (Arabidopsis thaliana) (UniProt Q5XQC7); test: as above
T8 sequence: T2 sequence

B1: ACA8-I-CLuc (domain or fragment, UniProt Q9LF79 1-106)
chain: MTSLLKSSPGRRRGGDVESGKSEHADSDSDTFYIPSKNASIERLQQWRKAALVLNASRRFRYTLDLKKEQETREMRQKIRSHAHALLAANRFMDMGRESGVEKTTG
binding [1]: binds
binding [2]: binds

B2: ACA8-I-AD (domain or fragment, UniProt Q9LF79 1-106)
chain: B1 chain
binding [3]: binds
binding [4]: binds
binding [5]: binds

B3: ACA10-I-AD (domain or fragment, UniProt Q9SZR1 1-72)
chain: MSGQFNNSPRGEDKDVEAGTSSFTEYEDSPFDIASTKNAPVERLRRWRQAALVLNASRRFRYTLDLKREEDK
binding [3]: binds
binding [4]: binds
binding [5]: binds

B4: segment I of ACA9 in pGADT7 (domain or fragment, UniProt Q9LU41 1-101)
chain: MSTSSSNGLLLTSMSGRHDDMEAGSAKTEEHSDHEELQHDPDDPFDIDNTKNASVESLRRWRQAALVLNASRRFRYTLDLNKEEHYDNRRRMIRAHAQVIR
binding [3]: binds
binding [4]: binds
binding [5]: binds

B5: ACA10-I-CLuc (domain or fragment, UniProt Q9SZR1 1-72)
chain: B3 chain
binding [1]: binds
binding [2]: binds

B6: ACA9-I-CLuc (domain or fragment, UniProt Q9LU41 1-101)
chain: B4 chain
binding [6]: binds

B7: ACA9-I-NLuc (domain or fragment, UniProt Q9LU41 1-101)
chain: B4 chain
binding [7]: binds
binding [8]: binds
